This test addresses T1, JNK-interacting protein 1 (JIP-1) (UniProt Q9WVI9).
T1 sequence (looked up): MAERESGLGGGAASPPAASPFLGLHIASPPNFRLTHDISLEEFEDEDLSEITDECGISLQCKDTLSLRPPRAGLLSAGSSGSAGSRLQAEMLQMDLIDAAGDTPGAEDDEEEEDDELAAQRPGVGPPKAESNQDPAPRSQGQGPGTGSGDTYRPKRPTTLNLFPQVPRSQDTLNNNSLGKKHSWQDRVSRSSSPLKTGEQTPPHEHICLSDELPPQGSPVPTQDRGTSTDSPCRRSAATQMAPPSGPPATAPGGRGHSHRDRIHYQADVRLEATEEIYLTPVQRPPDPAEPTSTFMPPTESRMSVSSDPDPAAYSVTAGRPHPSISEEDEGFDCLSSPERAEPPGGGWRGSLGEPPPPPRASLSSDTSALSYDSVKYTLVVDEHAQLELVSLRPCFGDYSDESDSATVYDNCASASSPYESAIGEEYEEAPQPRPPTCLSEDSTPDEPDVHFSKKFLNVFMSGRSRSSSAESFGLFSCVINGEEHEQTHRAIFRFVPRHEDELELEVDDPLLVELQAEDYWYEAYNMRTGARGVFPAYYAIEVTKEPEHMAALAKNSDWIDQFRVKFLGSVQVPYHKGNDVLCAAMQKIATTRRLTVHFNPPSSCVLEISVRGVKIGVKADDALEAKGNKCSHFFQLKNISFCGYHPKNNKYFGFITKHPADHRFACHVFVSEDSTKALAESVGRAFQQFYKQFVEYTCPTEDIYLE
The experiment in a line: IP-FCM with α-JIP-1 beads in the presence of Tat-POSH.

No constants are given. Whether binding was seen depends on the method and setting. Some entries that bind do so weakly or less than the wild type.

B1: MKK7 (enzyme, UniProt Q8CE90 2-535, looked up)
chain: AASSLEQKLSRLEAKLKQENREARRRIDLNLDISPQRPRPIIVITLSPAPAPSQRAALQLPLANDGGSRSPSSESSPQHPTPPTRPRHMLGLPSTLFTPRSMESIEIDQKLQEIMKQTGYLTIGGQRYQAEINDLENLGEMGSGTCGQVWKMRFRKTGHIIAVKQMRRSGNKEENKRILMDLDVVLKSHDCPYIVQCFGTFITNTDVFIAMELMGTCAEKLKKRMQGPIPERILGKMTVAIVKALYYLKEKHGVIHRDVKPSNILLDERGQIKLCDFGISGRLVDSKAKTRSAGCAAYMAPERIDPPDPTKPDYDIRADVWSLGISLVELATGQFPYKNCKTDFEVLTKVLQEEPPLLPGHMGFSGDFQSFVKDCLTKDHRKRPKYNKLLEHSFIKHYEILEVDVASWFKDVMAKTESPRTSGVLSQHHLPFFSTSVTWGAWPLAAQTPFQSGVIRCRGRVPSPRRATGGSGGQPCVCAGGPGPSFTEMGPSPSPMLSNTFFTPDPGACPGASTWGLPRRRLCQLLTTSTPGCC
Turning to B1, the binding entry is “binds”.

(Values after US20160193292A1.)
